Data published in paper PMC4138210.
Results are given in words; binding and its absence hold for the method and conditions named. In cells and extracts the contact can be indirect.

By UniProt entry, the sequences of proteins in these tests, tags left out. Residues count along the entry.
UniProt O43157, residues 20-2135: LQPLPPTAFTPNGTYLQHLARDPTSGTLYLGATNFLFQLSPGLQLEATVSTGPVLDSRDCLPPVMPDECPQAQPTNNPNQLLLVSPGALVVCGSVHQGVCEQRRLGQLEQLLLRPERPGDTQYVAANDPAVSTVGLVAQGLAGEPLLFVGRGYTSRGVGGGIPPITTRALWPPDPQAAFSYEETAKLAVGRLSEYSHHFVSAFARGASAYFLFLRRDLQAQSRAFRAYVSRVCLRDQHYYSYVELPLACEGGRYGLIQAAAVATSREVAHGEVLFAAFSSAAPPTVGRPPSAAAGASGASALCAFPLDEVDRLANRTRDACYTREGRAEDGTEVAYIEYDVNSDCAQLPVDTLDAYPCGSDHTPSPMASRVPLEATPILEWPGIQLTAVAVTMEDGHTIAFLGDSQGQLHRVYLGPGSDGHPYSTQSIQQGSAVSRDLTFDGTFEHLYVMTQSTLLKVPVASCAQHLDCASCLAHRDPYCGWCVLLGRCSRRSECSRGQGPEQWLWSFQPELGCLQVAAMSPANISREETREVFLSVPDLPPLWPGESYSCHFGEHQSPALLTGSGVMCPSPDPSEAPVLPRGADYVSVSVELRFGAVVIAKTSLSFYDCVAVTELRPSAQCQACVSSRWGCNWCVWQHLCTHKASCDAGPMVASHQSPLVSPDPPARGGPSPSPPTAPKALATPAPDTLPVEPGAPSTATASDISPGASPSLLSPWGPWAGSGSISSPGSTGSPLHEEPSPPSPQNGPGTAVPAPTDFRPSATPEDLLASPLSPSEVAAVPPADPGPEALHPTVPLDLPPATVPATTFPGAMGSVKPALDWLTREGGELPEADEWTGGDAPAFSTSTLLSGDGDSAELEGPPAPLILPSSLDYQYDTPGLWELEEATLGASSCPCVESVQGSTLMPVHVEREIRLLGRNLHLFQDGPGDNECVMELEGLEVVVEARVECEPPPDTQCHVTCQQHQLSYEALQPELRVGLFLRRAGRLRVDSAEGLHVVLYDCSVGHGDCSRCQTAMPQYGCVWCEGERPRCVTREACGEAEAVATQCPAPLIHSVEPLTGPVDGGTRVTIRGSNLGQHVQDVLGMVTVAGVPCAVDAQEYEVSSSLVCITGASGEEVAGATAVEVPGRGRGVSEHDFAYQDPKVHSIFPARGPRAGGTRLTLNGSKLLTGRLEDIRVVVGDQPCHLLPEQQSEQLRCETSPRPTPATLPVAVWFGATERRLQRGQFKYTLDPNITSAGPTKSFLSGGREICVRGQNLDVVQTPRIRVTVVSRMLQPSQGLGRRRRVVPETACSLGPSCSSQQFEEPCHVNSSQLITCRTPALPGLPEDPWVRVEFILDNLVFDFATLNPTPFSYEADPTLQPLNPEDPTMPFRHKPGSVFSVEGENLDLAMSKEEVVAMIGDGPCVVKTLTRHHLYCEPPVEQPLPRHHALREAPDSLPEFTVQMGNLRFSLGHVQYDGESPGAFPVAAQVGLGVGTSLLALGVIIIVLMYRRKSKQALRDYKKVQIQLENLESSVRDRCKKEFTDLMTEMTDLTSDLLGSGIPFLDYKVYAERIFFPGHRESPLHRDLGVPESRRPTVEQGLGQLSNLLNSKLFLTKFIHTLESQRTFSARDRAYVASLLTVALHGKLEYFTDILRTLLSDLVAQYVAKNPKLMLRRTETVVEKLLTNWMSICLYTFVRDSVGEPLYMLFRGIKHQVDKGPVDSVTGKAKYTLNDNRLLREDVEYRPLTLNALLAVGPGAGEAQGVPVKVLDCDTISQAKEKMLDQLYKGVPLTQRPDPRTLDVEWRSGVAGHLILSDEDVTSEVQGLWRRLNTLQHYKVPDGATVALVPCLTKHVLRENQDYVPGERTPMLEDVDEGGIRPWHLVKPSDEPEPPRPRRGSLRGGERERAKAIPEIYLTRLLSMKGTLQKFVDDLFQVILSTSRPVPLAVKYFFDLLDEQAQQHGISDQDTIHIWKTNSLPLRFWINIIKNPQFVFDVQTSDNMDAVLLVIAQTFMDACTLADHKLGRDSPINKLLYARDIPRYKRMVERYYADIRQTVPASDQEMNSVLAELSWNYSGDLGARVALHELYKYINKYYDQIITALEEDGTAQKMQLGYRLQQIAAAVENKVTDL

Molecular target: Plexin-B1 (human (endogenous in MCF-7)) (UniProt O43157)
Test: condition: only cells treated with IKK inhibitor SC-514 (50 µM) for 30 minutes; co-IP; as a3, but MCF-7 cells incubated with IKK inhibitor SC-514 (50 µM) for 30 min before lysis

binding: no binding
Substance: ErbB-2 (from UniProt P04626 23-1255) (receptor)
